Measurements published in the supplement of paper PMC4604168 (melanoma cell lines).
Some of the results follow. Many values rest on one well or one pass, so single values are uncertain.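 The apoptosis fraction was the count of cleaved-PARP antibody-stained nuclei relative to all DNA-stained nuclei, imaged in 1,536-well plates. Screening doses were set so most cells survived, and baseline and induced cleaved-PARP levels vary greatly across cell lines.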

These compounds were tested on CBRC013 (line from a melanoma biopsy) (assay: cleaved PARP positive nuclei fraction relative to DMSO control; melanoma cells; higher = more apoptosis). Settings: library dose: low library concentration; 72 h.

Row | SMILES | cleaved PARP positive nuclei fraction [%]
1 | O=C(/C=C/c1cccnc1)NCCCCC1CCN(C(=O)c2ccccc2)CC1 + Cc1cc(N2CCOCC2)cc2[nH]c(-c3c(NC[C@@H](O)c4cccc(Cl)c4)cc[nH]c3=O)nc12 [BMS536924] (first compound 0.01 µM, partner dose 0.2 µM) | 243
2 | COc1cc([C@@H]2c3cc4c(cc3[C@@H](O[C@@H]3O[C@@H]5CO[C@@H](C)O[C@H]5[C@H](O)[C@H]3O)[C@H]3COC(=O)[C@H]23)OCO4)cc(OC)c1O [etoposide] + OCCn1cc(-c2cnc3nnn(Cc4ccc5ncccc5c4)c3n2)cn1 [PF04217903] (first compound 0.02 µM, partner dose 1 µM) | 139
3 | COc1cc([C@@H]2c3cc4c(cc3[C@@H](O[C@@H]3O[C@@H]5CO[C@@H](C)O[C@H]5[C@H](O)[C@H]3O)[C@H]3COC(=O)[C@H]23)OCO4)cc(OC)c1O [etoposide] + Cc1cc(N2CCOCC2)cc2[nH]c(-c3c(NC[C@@H](O)c4cccc(Cl)c4)cc[nH]c3=O)nc12 [BMS536924] (first compound 0.02 µM, partner dose 0.2 µM) | 95.9
4 | O=c1[nH]nc(Sc2ncc([N+](=O)[O-])s2)n1-c1ccc2c(c1)OCCO2 + O=C(CCCCCCC(=O)Nc1ccccc1)NO [vorinostat] (first compound 0.2 µM, partner dose 0.08 µM) | 104
5 | Cc1ccc(Nc2nccc(N(C)c3ccc4c(C)n(C)nc4c3)n2)cc1S(N)(=O)=O [Pazopanib] + CO[C@@H]1[C@H](N(C)C(=O)c2ccccc2)C[C@H]2O[C@]1(C)n1c3ccccc3c3c4c(c5c6ccccc6n2c5c31)C(=O)NC4 [Midostaurin] (first compound 0.4 µM, partner dose 0.08 µM) | 113
6 | N#CC[C@H](C1CCCC1)n1cc(-c2ncnc3[nH]ccc23)cn1 [ruxolitinib] + Cc1cc(N2CCOCC2)cc2[nH]c(-c3c(NC[C@@H](O)c4cccc(Cl)c4)cc[nH]c3=O)nc12 [BMS536924] (first compound 1 µM, partner dose 0.2 µM) | 90.6
7 | COc1cc([C@@H]2c3cc4c(cc3[C@@H](O[C@@H]3O[C@@H]5CO[C@@H](C)O[C@H]5[C@H](O)[C@H]3O)[C@H]3COC(=O)[C@H]23)OCO4)cc(OC)c1O [etoposide] + CO[C@@H]1[C@H](N(C)C(=O)c2ccccc2)C[C@H]2O[C@]1(C)n1c3ccccc3c3c4c(c5c6ccccc6n2c5c31)C(=O)NC4 [Midostaurin] (first compound 0.02 µM, partner dose 0.08 µM) | 144
8 | COc1cc([C@@H]2c3cc4c(cc3[C@@H](O[C@@H]3O[C@@H]5CO[C@@H](C)O[C@H]5[C@H](O)[C@H]3O)[C@H]3COC(=O)[C@H]23)OCO4)cc(OC)c1O [etoposide] + O=C(Nc1cccc(Cl)c1)Nc1ncc(CCNc2ncnc3ccsc23)s1 [SNS314] (first compound 0.02 µM, partner dose 0.0008 µM) | 58
9 | CCCCCCCCCCCCCCCCCCOP(=O)([O-])OC1CC[N+](C)(C)CC1 [Perifosine] + NC(=O)Nc1cc(-c2cccc(F)c2)sc1C(=O)N[C@H]1CCCNC1 [AZD7762] (first compound 0.4 µM, partner dose 0.02 µM) | 64.2
10 | O=C(/C=C/c1cccnc1)NCCCCC1CCN(C(=O)c2ccccc2)CC1 + CO[C@@H]1[C@H](N(C)C(=O)c2ccccc2)C[C@H]2O[C@]1(C)n1c3ccccc3c3c4c(c5c6ccccc6n2c5c31)C(=O)NC4 [Midostaurin] (first compound 0.01 µM, partner dose 0.08 µM) | 99.5
11 | CC[C@]1(O)C[C@H]2CN(CCc3c([nH]c4ccccc34)[C@@](C(=O)OC)(c3cc4c(cc3OC)N(C=O)[C@H]3[C@@](O)(C(=O)OC)[C@H](OC(C)=O)[C@]5(CC)C=CCN6CC[C@]43[C@@H]65)C2)C1 [vincristine] + CN(C)S(=O)(=O)c1ccc2c(c1)/C(=C/c1cc3c([nH]1)CCCC3)C(=O)N2 [SU6656] (first compound 0.0001 µM, partner dose 0.4 µM) | 124
12 | O=C(/C=C/c1cccnc1)NCCCCC1CCN(C(=O)c2ccccc2)CC1 + CN(C)S(=O)(=O)c1ccc2c(c1)/C(=C/c1cc3c([nH]1)CCCC3)C(=O)N2 [SU6656] (first compound 0.01 µM, partner dose 0.4 µM) | 76.3
13 | Cc1ccc(Nc2nccc(N(C)c3ccc4c(C)n(C)nc4c3)n2)cc1S(N)(=O)=O [Pazopanib] + NC(=O)Nc1cc(-c2cccc(F)c2)sc1C(=O)N[C@H]1CCCNC1 [AZD7762] (first compound 0.4 µM, partner dose 0.02 µM) | 95.9
14 | Cc1cn(-c2cc(NC(=O)c3ccc(C)c(Nc4nccc(-c5cccnc5)n4)c3)cc(C(F)(F)F)c2)cn1 [nilotinib] + NC(=O)Nc1cc(-c2cccc(F)c2)sc1C(=O)N[C@H]1CCCNC1 [AZD7762] (first compound 0.2 µM, partner dose 0.02 µM) | 123
15 | CCCCCCCCCCCCCCCCCCOP(=O)([O-])OC1CC[N+](C)(C)CC1 [Perifosine] + C[C@@H]1CCN(C(=O)CC#N)C[C@@H]1N(C)c1ncnc2[nH]ccc12 [CP690550] (first compound 0.4 µM, partner dose 1 µM) | 94.4
16 | N#CC[C@H](C1CCCC1)n1cc(-c2ncnc3[nH]ccc23)cn1 [ruxolitinib] + C[C@@H]1CCN(C(=O)CC#N)C[C@@H]1N(C)c1ncnc2[nH]ccc12 [CP690550] (first compound 1 µM, partner dose 1 µM) | 103
17 | COc1cc([C@@H]2c3cc4c(cc3[C@@H](O[C@@H]3O[C@@H]5CO[C@@H](C)O[C@H]5[C@H](O)[C@H]3O)[C@H]3COC(=O)[C@H]23)OCO4)cc(OC)c1O [etoposide] + Cn1cncc1[C@@](N)(c1ccc(Cl)cc1)c1ccc2c(c1)c(-c1cccc(Cl)c1)cc(=O)n2C [tipifarnib] (first compound 0.02 µM, partner dose 0.01 µM) | 79.1
18 | N#CC[C@H](C1CCCC1)n1cc(-c2ncnc3[nH]ccc23)cn1 [ruxolitinib] + Cc1ccc(NC(=O)c2cccc(N(C)C)c2)cc1NC(=O)c1ccc(O)cc1 [ZM336372] (first compound 1 µM, partner dose 2 µM) | 76
19 | N#CC[C@H](C1CCCC1)n1cc(-c2ncnc3[nH]ccc23)cn1 [ruxolitinib] + COc1cc2c(Oc3ccc4[nH]c(C)cc4c3F)ncnc2cc1OCCCN1CCCC1 [cediranib] (first compound 1 µM, partner dose 0.4 µM) | 133
20 | O=c1[nH]nc(Sc2ncc([N+](=O)[O-])s2)n1-c1ccc2c(c1)OCCO2 + O=C(O)c1ccc(-c2c[nH]c3ncc(-c4ccccc4)cc23)cc1C1CCCC1 [GSK650394] (first compound 0.2 µM, partner dose 0.16 µM) | 72.3
21 | Cc1cc(Nc2cc(N3CCN(C)CC3)nc(Sc3ccc(NC(=O)C4CC4)cc3)n2)n[nH]1 [Tozasertib] + COc1cc2c(Oc3ccc4[nH]c(C)cc4c3F)ncnc2cc1OCCCN1CCCC1 [cediranib] (first compound 0.006 µM, partner dose 0.4 µM) | 120
22 | O=c1[nH]nc(Sc2ncc([N+](=O)[O-])s2)n1-c1ccc2c(c1)OCCO2 + NCC(=O)Nc1ccc(-n2nc(C(F)(F)F)cc2-c2ccc3c(ccc4ccccc43)c2)cc1 [OSU03012] (first compound 0.2 µM, partner dose 1 µM) | 188
23 | N#CC[C@H](C1CCCC1)n1cc(-c2ncnc3[nH]ccc23)cn1 [ruxolitinib] + CN(C)S(=O)(=O)c1ccc2c(c1)/C(=C/c1cc3c([nH]1)CCCC3)C(=O)N2 [SU6656] (first compound 1 µM, partner dose 0.4 µM) | 157
24 | CC[C@]1(O)C[C@H]2CN(CCc3c([nH]c4ccccc34)[C@@](C(=O)OC)(c3cc4c(cc3OC)N(C=O)[C@H]3[C@@](O)(C(=O)OC)[C@H](OC(C)=O)[C@]5(CC)C=CCN6CC[C@]43[C@@H]65)C2)C1 [vincristine] + O=C(Nc1cccc(Cl)c1)Nc1ncc(CCNc2ncnc3ccsc23)s1 [SNS314] (first compound 0.0001 µM, partner dose 0.0008 µM) | 119

Quoted at random: two records from the list, in no set order.
Row | SMILES | cleaved PARP positive nuclei fraction [%]
1 | O=C(/C=C/c1cccnc1)NCCCCC1CCN(C(=O)c2ccccc2)CC1 + Cc1cc(N2CCOCC2)cc2[nH]c(-c3c(NC[C@@H](O)c4cccc(Cl)c4)cc[nH]c3=O)nc12 [BMS536924] (first compound 0.01 µM, partner dose 0.2 µM) | 243
16 | N#CC[C@H](C1CCCC1)n1cc(-c2ncnc3[nH]ccc23)cn1 [ruxolitinib] + C[C@@H]1CCN(C(=O)CC#N)C[C@@H]1N(C)c1ncnc2[nH]ccc12 [CP690550] (first compound 1 µM, partner dose 1 µM) | 103
